The list shows a part of the results. Hit calls seldom repeat between salt and free forms of one compound.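 Kinases were expressed as nanoluciferase fusions in K562 cells and luminescence was read every 4 h between 2 and 18 h as percent of control, DMSO set to 100% and a positive control to 0%. A time point counts as decreased when the signal drops significantly (2 sigma). The hit call is the authors' own, does not follow from the count of time points alone, and its rule is not shown.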
biological target: MKNK1 (UniProt Q9BUB5); test: kinase-Nluc reporter destabilization hit call (1 = scored as downregulated) (binary); higher = compound decreases kinase abundance; conditions: K562; 2-18 h

Amino acid sequences for entries named in this document (tags omitted). A change or cut given only in a name is not applied to a line headed by its entry.
UniProt Q9BUB5: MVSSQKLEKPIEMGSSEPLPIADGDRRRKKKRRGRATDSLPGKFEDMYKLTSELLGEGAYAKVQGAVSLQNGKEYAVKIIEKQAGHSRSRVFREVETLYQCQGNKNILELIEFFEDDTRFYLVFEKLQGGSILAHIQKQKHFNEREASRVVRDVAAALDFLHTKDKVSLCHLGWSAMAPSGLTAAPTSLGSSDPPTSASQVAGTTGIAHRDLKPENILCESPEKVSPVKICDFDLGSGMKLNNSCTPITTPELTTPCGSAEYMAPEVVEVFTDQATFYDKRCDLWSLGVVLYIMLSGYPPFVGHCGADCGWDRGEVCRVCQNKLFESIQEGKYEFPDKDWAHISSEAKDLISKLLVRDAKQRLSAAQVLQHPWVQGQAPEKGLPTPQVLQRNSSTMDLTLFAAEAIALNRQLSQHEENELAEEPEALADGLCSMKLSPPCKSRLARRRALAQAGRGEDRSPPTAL

Compound	kinase-Nluc reporter destabilization hit call
Cc1cccc(-c2[nH]c(C(C)(C)C)nc2-c2ccc3c(c2)OCO3)n1 (2.5 µM)	inactive: 0
Cc1cccc(Cn2nc(C)c3c(NC(=O)c4csc5c(N)ncnc45)cccc32)n1 (10 µM)	inactive: 0
CC[C@@H]1CN(C(=O)NCC(F)(F)F)C[C@@H]1c1cnc2cnc3[nH]ccc3n12 [Upadacitinib] (10 µM)	inactive: 0
CNS(=O)(=O)C[C@H]1CC[C@H](N(C)c2[nH]cnc3nccc2-3)CC1 [Oclacitinib (maleate)] (10 µM)	inactive: 0
COc1cc(-c2cnc(N)c(-c3ccc(NC(=O)c4cn(CC5CCOCC5)cc(-c5ccc(C)cn5)c4=O)cc3F)c2)ccc1OC[C@H]1COCCO1 [DS-1205b (free base)] (10 µM)	inactive: 0

— the supplement of paper PMC12823440, “Inhibitors supercharge kinase turnover through native proteolytic circuits” (Nature, 2025)
